# Source: PubChem BioAssay AID2417 (National Center for Advancing Translational Sciences (NCATS), 2010)
# In all, about 140,000 compounds went through this assay and about 4,300 (3.1%) were called active. Inconclusive means that the source gave no clear call. Such entries were picked first, then a sample of the others.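 How the source made its calls: active means readout at or below -70, meaning at least 70% loss of cells showing the perinucleolar compartment, a nuclear body marking cancer cells; inconclusive means readout between -30 and a set limit; inactive means the rest.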
# Assay: High Content Assay for Compounds that inhibit the Assembly of the Perinucleolar Compartment;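 further: plate controls were DMSO wells for no effect and camptothecin positive control wells for full effect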
# Details: PC3M PTB-GFP, PNC prevalence imaging, 16 h; at 10 µM; active compounds read low
# Procedure, shortened: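 Compounds are pinned in duplicate onto adhered PC3M cells stably expressing GFP-tagged PTB and incubated 16 h at 37 C. Cells are then fixed, nuclei stained with Hoechst, and PNC-positive cells counted.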
row,Compound,"activity change (PNC), negative = inhibition"
1,CC(C)c1nc(SCC(=O)Nc2nc3c(s2)CCCC3)c2ccccc2n1,inconclusive: -36%
2,COC(=O)c1ccc(NC(=O)C(=O)N2CCN(C(=S)Nc3ccccc3OC)CC2)cc1,inconclusive: -74.2%
3,O=C(CSc1nc2cc3c(cc2c(=O)n1CCC1=CCCCC1)OCO3)NCc1ccco1,inconclusive: -42.1%
4,COc1ccccc1OCC(=O)Sc1ccc(C)cc1,inactive: -19%
5,O=C1NCCN1C(=O)c1ccco1,inconclusive: -49%
6,O=C(CCN1CCOCC1)c1ccccc1,inactive: 9.69%
7,CCOC(=O)c1cccc(NC(=O)/C=C/c2ccc([N+](=O)[O-])cc2)c1,inconclusive: -49.7%
8,CCCCNC(=O)CS(=O)Cc1nc(-c2ccc(C)cc2)oc1C (stereo not drawn),inconclusive: -54.7%
9,COc1ccccc1NC(=O)Cc1c(F)cccc1Cl,inconclusive: -33.2%
10,O=C(CCCCl)NC1=NN(c2ccccc2)C(=O)C1,inactive: -24.8%
11,CSc1ccccc1C(=O)NCCc1ccc(S(=O)(=O)N2CCCCC2)cc1,inconclusive: -32%
12,COc1ccc(N(C2CSC2)S(=O)(=O)c2ccccc2)cc1,inconclusive: -36.3%
13,O=C(NCc1nnc(SCC(=O)N2CCCc3ccccc32)n1-c1ccccc1)c1cccc2ccccc12,inactive: 14.4%
14,CCOC(=O)c1cc(CC)sc1NC(=O)CSc1nc2ccccc2c(=O)n1Cc1ccco1,inconclusive: -65.4%
15,Cc1noc(C)c1S(=O)(=O)Nc1ccc(C(=O)N2CCN(c3cccc(Cl)c3)CC2)cc1,inactive: 17.4%
16,Cc1ccc(/C=N/NC(=O)c2nn(C)cc2Cl)cc1,inactive: -16.4%
17,COc1ccc(C2CC(=O)C3=C(C2)Nc2ncnn2C3c2ccccc2)cc1 (stereo not drawn),active: -107%
18,O=C(CSc1ccc(-c2ccccc2)nn1)N1CCCc2ccccc21,inactive: 0%
19,O=C(Nc1ccc2c(c1)OCCO2)C1CCN(S(=O)(=O)c2cccc3nsnc23)CC1,active: -80.8%
20,COC(=O)c1sc(NC(=O)c2ccco2)nc1C,inactive: 11.1%

row,Compound,"activity change (PNC), negative = inhibition"
1,CCN(CC)CCn1c(OC)cc(=O)[nH]c1=O,inactive: 37.1%
2,CCc1ccc(NC(=S)NNC(=O)c2ccccc2OC(F)F)cc1,inconclusive: -33.3%
3,COc1cccc(-n2nnnc2SCC(=O)NCc2ccc3c(c2)OCO3)c1,inconclusive: -42.6%
4,CC(C)OCCCn1c(=N)c(C(N)=S)cc2c(=O)n3ccccc3nc21,inactive: -19.5%
5,CC(=O)Nc1ccc(NC(=O)C(F)(F)F)cc1,inconclusive: -44%
6,O=C(O)C1CCN(c2c([N+](=O)[O-])cc(C(F)(F)F)cc2[N+](=O)[O-])CC1,inconclusive: -37.7%
7,Cn1cc([N+](=O)[O-])c(C(=O)NCc2cc3cc(Cl)ccc3[nH]2)n1,inconclusive: -64.8%
8,O=C(NC1(O)C(=O)c2ccccc2C1=O)c1ccccc1,inactive: 15.4%
9,COc1ccc2cc(C(c3nnnn3CCc3ccccc3)N3CCCC(C)C3)c(=O)[nH]c2c1 (stereo not drawn),inactive: 10.5%
10,Cn1c(=O)c2ncn(CC(=O)Nc3cccc(-c4nc5ccccc5s4)c3)c2n(C)c1=O,inconclusive: -55.3%
11,CN(C)c1ccc(CNn2cnnc2SCc2ccccc2F)cc1,inconclusive: -48.5%
12,CCOC(=O)CN(C(=O)CSc1nnc(Cc2ccccc2)n1-c1ccc(C)cc1)c1ccccc1,inconclusive: -45.6%
13,O=C(OCCN1C(=O)c2cccc3c(N4CCOCC4)ccc(c23)C1=O)c1cc(Cl)cc(Cl)c1,inconclusive: -65.9%
14,Cc1csc(NC(=O)C2CCCN(S(=O)(=O)c3ccc4c(c3)oc(=O)n4C)C2)n1 (stereo not drawn),inactive: -10.2%
15,Cc1ccc(S(=O)(=O)N(CCC#N)CCN2CCCC2)cc1,inactive: -24.8%
16,CCOc1ccc(Br)cc1S(=O)(=O)N1CC(C)OC(C)C1 (stereo not drawn),inconclusive: -32.6%
17,CCOC(=O)N1CCN(C(=O)c2n[nH]c(=O)c3ccccc23)CC1,inconclusive: -50%
18,CC(CCc1ccccc1)NC(=O)C1CCCN(c2nnc(-n3cccc3)s2)C1 (stereo not drawn),inactive: -23.4%
19,CCCCC1(Cc2ccc([N+](=O)[O-])cc2)C(=O)N(c2ccccc2)N(c2ccccc2)C1=O,inactive: -26%
20,CCOc1ccc(OCC)c(NC(=O)C2CCCN(S(=O)(=O)c3cnc[nH]3)C2)c1 (stereo not drawn),inconclusive: -48.7%

# Molecules listed so far that have a nitro group on carbon, in the order listed:
row,Compound,"activity change (PNC), negative = inhibition"
7,CCOC(=O)c1cccc(NC(=O)/C=C/c2ccc([N+](=O)[O-])cc2)c1,inconclusive: -49.7%
6,O=C(O)C1CCN(c2c([N+](=O)[O-])cc(C(F)(F)F)cc2[N+](=O)[O-])CC1,inconclusive: -37.7%
7,Cn1cc([N+](=O)[O-])c(C(=O)NCc2cc3cc(Cl)ccc3[nH]2)n1,inconclusive: -64.8%
19,CCCCC1(Cc2ccc([N+](=O)[O-])cc2)C(=O)N(c2ccccc2)N(c2ccccc2)C1=O,inactive: -26%

# Following part

row,Compound,"activity change (PNC), negative = inhibition"
1,CCCC(C)C(=O)Nc1ccc(Cl)cn1 (stereo not drawn),inactive: 0%
2,c1ccc2nc3c(nc2c1)CCc1nonc1-3,inconclusive: -39.9%
3,COc1ccc(NC(=O)c2ccc(Br)o2)cc1,inactive: 7.43%
4,Cc1occc1C(=O)Nc1ccc2ccccc2c1,inactive: 16.4%
5,CCOc1ccc(C(=O)NCc2ccccn2)cc1,inactive: 5.23%
6,CCc1ccc(Nc2cc(C(=O)NCCCN3CCOCC3)c3ccccc3n2)cc1,inconclusive: -44%
7,COc1ccc(CN(CCCN2CCOCC2)C(=O)Nc2ccccc2)cc1OC,inconclusive: -62.8%
8,CC1=Nc2ccccc2/C1=C\c1nc(-c2ccc(C(F)(F)F)cc2)oc1O,inconclusive: -30.6%
9,Cc1nc(C2CC(=O)OC23CCCCC3)cs1 (stereo not drawn),inactive: -14.7%
10,NS(=O)(=O)c1ccc(NC(=S)NCc2ccccc2)cc1,active: -96.6%
11,S=C(c1cn(Cc2ccc(Br)cc2)c2ccccc12)N1CCOCC1,inactive: 1.21%
12,CCOC(=O)c1c(NC(=O)CSc2nnc(CN3CCOCC3)n2C)sc2c1CCCC2,inconclusive: -66.1%
13,CCn1c(SCC(=O)N2CCc3ccccc32)nc2c(c1=O)SC(C)C2 (stereo not drawn),inconclusive: -57.4%
14,COCCn1c(=NC(=O)CSCC(=O)Nc2cc(C)on2)sc2cc(C(=O)OC)ccc21,active: -113%
15,CC(C)(C)Nc1nc(SCc2ccccc2)nc(N2CCOCC2)n1,inconclusive: -41.2%
16,Cc1ccc(-c2nc(NC(=O)CSc3nnnn3-c3ccccc3)ns2)cc1,inconclusive: -62.7%
17,CC(C)(C)c1cnnn1-c1ccc(C=O)cc1,inconclusive: -55.5%
18,CCOc1cccc(/C=N/NC(=S)Nc2cc(S(=O)(=O)N3CCOCC3)ccc2N2CCOCC2)c1O,inconclusive: -39%
